Experimental data taken from PubChem BioAssay AID248 (DTP/NCI, 2004).
The list does not hold the whole screen: it is rich in T/C values a quarter to a half above the control, in often repeated tests (any T/C) and in doses without a T/C. Further doses and runs are listed elsewhere. T/C is the treated group as % of the vehicle group. Some doses have a count of surviving animals in place of a T/C: the source files T/C as zero there, which appears to mark a toxic dose or a test without result, not a measured value. Counts of survivors are from the toxicity check (mostly the fifth day) where no day follows; animals may have died later. Schedules are NCI's codes, taken here to give the interval after Q, in days (D) or hours (H), and the number of doses after X. Some schedule codes hold Z or #, which are not explained here. For survival time, the PubChem record calls one and a half times the control and up active, and a quarter to a half above the control has no call in these data; cut-offs in other NCI protocols can differ. Some T/C values are followed by the survivors on the day toxicity was checked, most often the fifth; where none is given, no animal had died by that day. Some doses were run more than once; their values stand side by side, smallest first. Signs of the kind (2×) count equal records among those shown.

Test system: L1210 leukemia ip in BDF1 mice, survival T/C
Test: NCI In Vivo Anticancer Drug Screen. Data for tumor model L1210 Leukemia (intraperitoneal) in B6D2F1 (BDF1) mice
Conditions: T/C endpoint: mean survival time, higher T/C = longer survival
[1] = dose: 222.0 mg/kg/injection, schedule: Q01DX Z (ip), vehicle: methylcellulose (MC)
[2] = dose: 333.0 mg/kg/injection, schedule: Q01DX Z (ip), vehicle: methylcellulose (MC)

Nc1n[nH]c(N)n1
T/C (dose: 100.0 mg/kg/injection, schedule: Q03HX024 (ip), vehicle: saline): 115, 117, 121, 122 % of control
T/C (dose: 100.0 mg/kg/injection, schedule: Q#A X010 (ip), vehicle: saline): 134 % of control
T/C (dose: 100.0 mg/kg/injection, schedule: Q#A X020 (ip), vehicle: saline): 129 % of control
T/C (dose: 112.0 mg/kg/injection, schedule: Q03HX008 (ip), vehicle: water): 127 % of control
T/C (dose: 112.0 mg/kg/injection, schedule: Q03HX024 (ip), vehicle: water): 127 % of control
T/C (dose: 112.0 mg/kg/injection, schedule: Q03HX040 (ip), vehicle: water): 130 % of control
T/C (dose: 112.0 mg/kg/injection, schedule: Q#A X018 (ip), vehicle: water): 128 % of control
T/C (dose: 112.0 mg/kg/injection, schedule: Q#A X034 (ip), vehicle: water): 129 % of control [7 of 8 alive]
T/C (dose: 128.0 mg/kg/injection, schedule: Q#A X022 (ip), vehicle: other): 133 % of control
T/C (dose: 150.0 mg/kg/injection, schedule: Q03HX008 (ip), vehicle: saline): 126 % of control
T/C (dose: 150.0 mg/kg/injection, schedule: Q03HX016 (ip), vehicle: saline): 138 % of control
T/C (dose: 150.0 mg/kg/injection, schedule: Q03HX024 (ip), vehicle: saline): 128, 138, 139, 149 % of control
survivor count (dose: 166.0 mg/kg/injection, schedule: Q01DX Z (ip), vehicle: methylcellulose (MC)): 3 of 6
T/C (dose: 200.0 mg/kg/injection, schedule: Q01DX009 (ip), vehicle: Klucel (hydroxypropylcellulose) (HPC)): 126 % of control [5 of 6 alive]
T/C (dose: 200.0 mg/kg/injection, schedule: Q01DX009 (ip), vehicle: saline, evaluated on day 30): 103, 110, 112, 114, 118, 122 (2×), 123, 124 (2×), 126, 127 [5 of 6 alive], 136, 137 % of control
T/C (dose: 200.0 mg/kg/injection, schedule: Q01DX009 (ip), vehicle: saline, evaluated on day 60): 136 and 137 % of control
T/C (dose: 200.0 mg/kg/injection, schedule: Q01DX009 (ip), vehicle: saline, run until all animals had died): 125 % of control
T/C (dose: 200.0 mg/kg/injection, schedule: Q01DX010 (ip), vehicle: saline): 134 and 146 % of control
T/C (dose: 200.0 mg/kg/injection, schedule: Q#A X034 (ip), vehicle: water): 135 % of control
T/C [1]: 108, 119, 131 % of control
survivor count [1]: 0 of 6
T/C (dose: 225.0 mg/kg/injection, schedule: Q01DX009 (ip), vehicle: water): 138 % of control
T/C (dose: 225.0 mg/kg/injection, schedule: Q03HX008 (ip), vehicle: saline): 139 % of control
T/C (dose: 225.0 mg/kg/injection, schedule: Q03HX008 (ip), vehicle: water): 140 % of control
T/C (dose: 225.0 mg/kg/injection, schedule: Q03HX016 (ip), vehicle: saline): 148 % of control
T/C (dose: 225.0 mg/kg/injection, schedule: Q03HX024 (ip), vehicle: saline, evaluated on day 40): 129 % of control
T/C (dose: 225.0 mg/kg/injection, schedule: Q03HX024 (ip), vehicle: saline, evaluated on day 45): 144, 152, 155, 159 % of control
T/C (dose: 225.0 mg/kg/injection, schedule: Q03HX040 (ip), vehicle: water): 136 % of control
T/C (dose: 225.0 mg/kg/injection, schedule: Q12HX018 (ip), vehicle: saline): 127 % of control
T/C (dose: 225.0 mg/kg/injection, schedule: Q#A X034 (ip), vehicle: water): 128 % of control
T/C (dose: 238.0 mg/kg/injection, schedule: Q03HX024 (ip), vehicle: saline, evaluated on day 5): 125 % of control
T/C (dose: 238.0 mg/kg/injection, schedule: Q03HX024 (ip), vehicle: saline, evaluated on day 60): 125 % of control
T/C (dose: 250.0 mg/kg/injection, schedule: Q01DX015 (ip), vehicle: saline): 130 % of control
T/C (dose: 250.0 mg/kg/injection, schedule: Q01DX Z (ip), vehicle: other): 126 % of control
T/C (dose: 250.0 mg/kg/injection, schedule: Q01DX Z (ip), vehicle: saline): 142 % of control
T/C (dose: 250.0 mg/kg/injection, schedule: Q01DX Z (ip), vehicle: water): 139 % of control
T/C (dose: 256.0 mg/kg/injection, schedule: Q#A X012 (ip), vehicle: other): 127 % of control
T/C (dose: 300.0 mg/kg/injection, schedule: Q06HX016 (ip), vehicle: saline): 142 % of control
T/C [2]: 108, 139, 141 % of control
survivor count [2]: 3 of 6
T/C (dose: 335.0 mg/kg/injection, schedule: Q03HX008 (ip), vehicle: saline): 146 % of control
T/C (dose: 335.0 mg/kg/injection, schedule: Q03HX024 (ip), vehicle: saline): 189, 190, 203, 222 % of control
T/C (dose: 350.0 mg/kg/injection, schedule: Q03HX032 (ip), vehicle: saline): 174, 188 [9 of 10 alive], 203, 222 % of control
T/C (dose: 362.0 mg/kg/injection, schedule: Q03HX024 (ip), vehicle: saline, evaluated on day 5): 182 and 232 % of control
T/C (dose: 362.0 mg/kg/injection, schedule: Q03HX024 (ip), vehicle: saline, evaluated on day 45): 182 % of control
T/C (dose: 362.0 mg/kg/injection, schedule: Q03HX024 (ip), vehicle: saline, evaluated on day 60): 232 % of control
T/C (dose: 400.0 mg/kg/injection, schedule: Q01DX006 (iv), vehicle: saline): 132 % of control
T/C (dose: 400.0 mg/kg/injection, schedule: Q01DX009 (ip), vehicle: Klucel (hydroxypropylcellulose) (HPC)): 135 [5 of 6 alive] and 144 % of control [4 of 6 alive]
T/C (dose: 400.0 mg/kg/injection, schedule: Q01DX009 (ip), vehicle: saline, evaluated on day 30): 103, 129 (3×), 134, 135, 137, 139, 140 (2×), 143 (2×), 144, 146 % of control [5 of 6 alive]
T/C (dose: 400.0 mg/kg/injection, schedule: Q01DX009 (ip), vehicle: saline, evaluated on day 60): 140, 143, 145 % of control
T/C (dose: 400.0 mg/kg/injection, schedule: Q01DX009 (ip), vehicle: saline, run until all animals had died): 125 % of control
T/C (dose: 400.0 mg/kg/injection, schedule: Q01DX010 (im), vehicle: saline): 130 % of control
T/C (dose: 400.0 mg/kg/injection, schedule: Q01DX010 (sc), vehicle: saline): 139 % of control
T/C (dose: 400.0 mg/kg/injection, schedule: Q01DX017 (ip), vehicle: water): 146 % of control
T/C (dose: 400.0 mg/kg/injection, schedule: Q12HX018 (ip), vehicle: water): 142 % of control
T/C (dose: 450.0 mg/kg/injection, schedule: Q01DX005 (ip), vehicle: water): 129 % of control
T/C (dose: 450.0 mg/kg/injection, schedule: Q03HX032 (ip), vehicle: saline): 175, 221 (2×), 229, 294, 313 % of control
T/C (dose: 450.0 mg/kg/injection, schedule: Q12HX010 (ip), vehicle: water): 134 % of control
T/C (dose: 450.0 mg/kg/injection, schedule: Q12HX018 (ip), vehicle: water): 129 % of control
T/C (dose: 450.0 mg/kg/injection, schedule: Q## X018 (ip), vehicle: saline): 147 % of control
T/C (dose: 500.0 mg/kg/injection, schedule: Q01DX Z (ip), vehicle: methylcellulose (MC)): 126 % of control
